Compound in the test: CC1Cc2ccccc2N1C(=O)C1CCCN(C1)C(=O)CCl (mixture of isomers) [TRIM25 ligand 11 (diastereomer mixture)]
Nature of the test: probe-labelled cysteine peptide fold change vs DMSO (competition) (log2 fold change); higher = less target engagement (more negative = stronger competition). Particulars: THP-1, incubation time: 4 h.

By UniProt entry, the sequences of proteins in these tests, tags left out. Where a name states a change or a piece, a line headed by the entry shows the natural chain unless it says otherwise.
UniProt O43257, whole entry: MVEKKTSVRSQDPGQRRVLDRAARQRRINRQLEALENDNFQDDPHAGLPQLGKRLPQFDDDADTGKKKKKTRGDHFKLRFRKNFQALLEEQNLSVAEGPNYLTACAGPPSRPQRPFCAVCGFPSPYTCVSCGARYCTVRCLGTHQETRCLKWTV
UniProt Q15942: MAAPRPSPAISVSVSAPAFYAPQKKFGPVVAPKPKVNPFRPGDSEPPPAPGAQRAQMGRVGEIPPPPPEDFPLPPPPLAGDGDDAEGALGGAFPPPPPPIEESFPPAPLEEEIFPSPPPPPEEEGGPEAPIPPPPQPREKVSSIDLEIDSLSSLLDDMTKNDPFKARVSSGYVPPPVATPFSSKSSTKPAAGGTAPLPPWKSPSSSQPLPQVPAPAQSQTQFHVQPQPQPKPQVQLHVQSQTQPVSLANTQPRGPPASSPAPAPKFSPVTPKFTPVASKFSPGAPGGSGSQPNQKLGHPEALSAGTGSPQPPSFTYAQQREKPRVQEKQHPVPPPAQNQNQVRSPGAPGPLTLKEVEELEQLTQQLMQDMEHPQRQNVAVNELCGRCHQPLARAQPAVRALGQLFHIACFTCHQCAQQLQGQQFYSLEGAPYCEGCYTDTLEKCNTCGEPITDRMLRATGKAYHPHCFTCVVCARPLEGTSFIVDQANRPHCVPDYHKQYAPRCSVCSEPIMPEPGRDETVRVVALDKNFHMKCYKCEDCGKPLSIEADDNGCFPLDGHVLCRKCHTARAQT
UniProt A7E2V4, whole entry, looked up: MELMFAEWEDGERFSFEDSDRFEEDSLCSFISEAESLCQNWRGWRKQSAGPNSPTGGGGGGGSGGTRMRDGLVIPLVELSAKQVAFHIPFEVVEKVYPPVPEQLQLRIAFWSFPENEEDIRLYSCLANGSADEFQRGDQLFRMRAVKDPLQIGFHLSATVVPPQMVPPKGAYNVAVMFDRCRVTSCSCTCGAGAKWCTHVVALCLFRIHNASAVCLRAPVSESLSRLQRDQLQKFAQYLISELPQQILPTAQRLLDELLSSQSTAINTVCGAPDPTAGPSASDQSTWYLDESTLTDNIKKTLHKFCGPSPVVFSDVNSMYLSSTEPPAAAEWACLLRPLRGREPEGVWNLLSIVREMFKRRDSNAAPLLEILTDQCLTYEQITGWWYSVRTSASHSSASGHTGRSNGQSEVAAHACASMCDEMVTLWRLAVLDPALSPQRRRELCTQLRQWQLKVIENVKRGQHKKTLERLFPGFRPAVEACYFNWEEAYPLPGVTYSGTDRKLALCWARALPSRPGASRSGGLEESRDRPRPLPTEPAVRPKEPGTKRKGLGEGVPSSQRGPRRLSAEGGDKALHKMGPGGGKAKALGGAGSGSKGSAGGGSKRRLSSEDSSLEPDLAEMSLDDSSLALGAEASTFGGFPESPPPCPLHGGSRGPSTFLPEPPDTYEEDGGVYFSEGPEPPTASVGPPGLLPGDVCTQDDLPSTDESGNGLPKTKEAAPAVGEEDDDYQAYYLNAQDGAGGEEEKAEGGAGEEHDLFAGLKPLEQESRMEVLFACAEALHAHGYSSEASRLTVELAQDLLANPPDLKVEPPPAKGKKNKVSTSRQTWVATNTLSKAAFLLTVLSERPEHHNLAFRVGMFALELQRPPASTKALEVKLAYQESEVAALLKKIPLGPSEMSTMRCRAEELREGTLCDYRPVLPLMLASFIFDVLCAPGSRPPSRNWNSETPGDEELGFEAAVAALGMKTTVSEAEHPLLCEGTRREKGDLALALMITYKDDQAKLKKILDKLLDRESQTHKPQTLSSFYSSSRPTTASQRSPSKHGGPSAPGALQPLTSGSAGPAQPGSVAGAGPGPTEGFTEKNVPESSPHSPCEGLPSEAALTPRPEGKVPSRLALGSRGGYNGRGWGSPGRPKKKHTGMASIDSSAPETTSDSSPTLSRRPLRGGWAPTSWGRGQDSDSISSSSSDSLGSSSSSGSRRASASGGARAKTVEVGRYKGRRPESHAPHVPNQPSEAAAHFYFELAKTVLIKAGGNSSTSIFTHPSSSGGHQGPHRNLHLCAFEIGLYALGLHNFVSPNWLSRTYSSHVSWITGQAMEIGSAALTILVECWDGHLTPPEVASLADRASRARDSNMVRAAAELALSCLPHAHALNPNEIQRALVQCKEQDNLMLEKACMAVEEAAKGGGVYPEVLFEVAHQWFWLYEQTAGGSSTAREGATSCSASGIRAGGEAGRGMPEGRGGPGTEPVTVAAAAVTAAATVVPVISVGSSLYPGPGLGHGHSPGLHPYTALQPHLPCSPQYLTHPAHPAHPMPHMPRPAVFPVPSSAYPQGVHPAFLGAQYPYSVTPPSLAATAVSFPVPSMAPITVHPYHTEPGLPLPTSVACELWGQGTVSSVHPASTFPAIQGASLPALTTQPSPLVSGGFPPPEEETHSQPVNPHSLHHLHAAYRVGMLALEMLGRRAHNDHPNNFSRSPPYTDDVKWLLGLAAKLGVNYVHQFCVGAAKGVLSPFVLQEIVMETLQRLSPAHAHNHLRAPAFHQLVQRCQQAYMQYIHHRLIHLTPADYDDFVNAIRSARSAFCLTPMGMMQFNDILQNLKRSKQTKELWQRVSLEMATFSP
UniProt Q9NWK9: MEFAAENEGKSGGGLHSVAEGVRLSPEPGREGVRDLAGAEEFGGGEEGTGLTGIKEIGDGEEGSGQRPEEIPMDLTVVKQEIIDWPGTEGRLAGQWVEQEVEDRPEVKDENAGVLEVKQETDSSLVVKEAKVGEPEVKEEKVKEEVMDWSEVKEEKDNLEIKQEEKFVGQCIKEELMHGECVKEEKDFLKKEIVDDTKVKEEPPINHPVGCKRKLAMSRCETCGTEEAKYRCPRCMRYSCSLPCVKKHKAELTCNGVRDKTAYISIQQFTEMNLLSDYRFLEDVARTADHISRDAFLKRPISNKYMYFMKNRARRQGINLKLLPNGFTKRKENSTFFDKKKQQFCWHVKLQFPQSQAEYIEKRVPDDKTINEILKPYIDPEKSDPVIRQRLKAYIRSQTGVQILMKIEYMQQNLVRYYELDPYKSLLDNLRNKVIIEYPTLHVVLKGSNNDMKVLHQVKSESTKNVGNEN
UniProt Q9P2E3: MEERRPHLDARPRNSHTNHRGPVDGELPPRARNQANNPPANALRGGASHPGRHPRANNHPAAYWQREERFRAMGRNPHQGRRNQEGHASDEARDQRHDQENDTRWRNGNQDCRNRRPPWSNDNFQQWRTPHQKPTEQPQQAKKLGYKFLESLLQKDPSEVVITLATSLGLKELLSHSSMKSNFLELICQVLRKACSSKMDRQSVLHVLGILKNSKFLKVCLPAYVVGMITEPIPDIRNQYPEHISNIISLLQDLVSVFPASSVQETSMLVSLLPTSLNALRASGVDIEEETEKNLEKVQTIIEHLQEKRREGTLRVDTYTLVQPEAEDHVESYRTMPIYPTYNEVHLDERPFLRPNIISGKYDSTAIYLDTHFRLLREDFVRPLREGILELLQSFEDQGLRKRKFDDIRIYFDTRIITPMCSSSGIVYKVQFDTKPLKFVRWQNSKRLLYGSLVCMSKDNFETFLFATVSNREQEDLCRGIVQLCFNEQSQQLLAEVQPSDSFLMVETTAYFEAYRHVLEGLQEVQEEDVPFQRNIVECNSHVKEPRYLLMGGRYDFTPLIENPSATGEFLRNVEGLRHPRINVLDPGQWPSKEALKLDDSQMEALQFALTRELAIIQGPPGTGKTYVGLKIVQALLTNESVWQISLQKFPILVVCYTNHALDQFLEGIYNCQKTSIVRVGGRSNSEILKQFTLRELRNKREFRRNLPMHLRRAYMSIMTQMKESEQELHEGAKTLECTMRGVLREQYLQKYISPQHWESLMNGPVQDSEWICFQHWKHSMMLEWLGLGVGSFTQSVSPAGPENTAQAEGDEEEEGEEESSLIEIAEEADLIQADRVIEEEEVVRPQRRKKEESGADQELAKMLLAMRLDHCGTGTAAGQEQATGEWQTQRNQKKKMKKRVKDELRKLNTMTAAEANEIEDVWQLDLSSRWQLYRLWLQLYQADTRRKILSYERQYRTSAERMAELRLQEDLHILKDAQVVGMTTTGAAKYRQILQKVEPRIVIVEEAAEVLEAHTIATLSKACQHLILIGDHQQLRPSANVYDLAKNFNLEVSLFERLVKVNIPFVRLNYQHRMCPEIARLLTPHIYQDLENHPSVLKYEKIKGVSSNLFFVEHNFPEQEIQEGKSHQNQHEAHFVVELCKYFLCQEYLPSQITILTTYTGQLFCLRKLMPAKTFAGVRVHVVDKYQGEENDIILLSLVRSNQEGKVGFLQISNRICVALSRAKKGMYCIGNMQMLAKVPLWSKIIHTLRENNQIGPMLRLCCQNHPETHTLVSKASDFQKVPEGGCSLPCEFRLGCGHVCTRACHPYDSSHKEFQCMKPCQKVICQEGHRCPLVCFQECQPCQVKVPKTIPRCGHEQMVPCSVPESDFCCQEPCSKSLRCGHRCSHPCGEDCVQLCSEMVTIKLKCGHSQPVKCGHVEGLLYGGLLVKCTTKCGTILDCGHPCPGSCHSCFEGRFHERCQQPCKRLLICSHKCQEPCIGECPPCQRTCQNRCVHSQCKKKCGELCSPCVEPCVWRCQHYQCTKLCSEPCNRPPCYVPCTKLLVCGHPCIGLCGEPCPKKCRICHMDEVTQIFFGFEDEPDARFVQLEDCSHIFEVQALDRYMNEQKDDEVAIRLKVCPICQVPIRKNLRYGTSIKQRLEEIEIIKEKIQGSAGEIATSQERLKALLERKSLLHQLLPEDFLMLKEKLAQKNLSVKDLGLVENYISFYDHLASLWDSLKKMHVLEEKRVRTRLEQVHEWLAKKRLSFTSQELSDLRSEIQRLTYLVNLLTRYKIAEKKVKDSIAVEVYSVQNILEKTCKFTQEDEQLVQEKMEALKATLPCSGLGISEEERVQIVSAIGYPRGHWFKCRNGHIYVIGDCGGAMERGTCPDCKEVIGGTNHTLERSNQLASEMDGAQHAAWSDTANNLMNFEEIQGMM
UniProt Q6NUN9: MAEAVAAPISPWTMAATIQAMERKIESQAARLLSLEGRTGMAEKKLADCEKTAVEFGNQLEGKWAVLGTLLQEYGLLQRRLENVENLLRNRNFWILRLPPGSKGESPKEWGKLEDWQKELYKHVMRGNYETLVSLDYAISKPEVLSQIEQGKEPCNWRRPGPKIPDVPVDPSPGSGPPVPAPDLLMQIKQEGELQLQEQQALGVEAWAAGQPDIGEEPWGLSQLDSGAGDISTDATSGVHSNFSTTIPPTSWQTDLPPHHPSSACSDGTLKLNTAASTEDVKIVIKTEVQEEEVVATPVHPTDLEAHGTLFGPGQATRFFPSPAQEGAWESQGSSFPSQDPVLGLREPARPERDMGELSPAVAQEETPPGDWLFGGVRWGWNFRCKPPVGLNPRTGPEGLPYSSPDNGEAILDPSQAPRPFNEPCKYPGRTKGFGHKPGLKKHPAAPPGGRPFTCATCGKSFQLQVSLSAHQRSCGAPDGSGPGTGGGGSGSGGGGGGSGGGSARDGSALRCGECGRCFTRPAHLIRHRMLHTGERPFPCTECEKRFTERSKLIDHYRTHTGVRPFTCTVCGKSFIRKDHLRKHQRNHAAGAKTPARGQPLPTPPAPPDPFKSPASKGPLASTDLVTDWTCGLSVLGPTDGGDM
UniProt Q6DD87: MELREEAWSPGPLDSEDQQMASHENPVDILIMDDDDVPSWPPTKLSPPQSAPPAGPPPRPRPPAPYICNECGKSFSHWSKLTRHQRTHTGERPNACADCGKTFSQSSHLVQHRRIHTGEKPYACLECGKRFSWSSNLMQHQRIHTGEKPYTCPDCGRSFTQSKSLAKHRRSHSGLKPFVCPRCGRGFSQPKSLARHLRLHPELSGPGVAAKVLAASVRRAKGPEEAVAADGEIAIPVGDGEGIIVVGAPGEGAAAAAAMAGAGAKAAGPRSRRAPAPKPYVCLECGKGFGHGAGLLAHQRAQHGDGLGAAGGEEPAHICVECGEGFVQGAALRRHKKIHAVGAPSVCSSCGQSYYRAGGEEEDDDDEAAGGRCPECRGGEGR
UniProt O95218: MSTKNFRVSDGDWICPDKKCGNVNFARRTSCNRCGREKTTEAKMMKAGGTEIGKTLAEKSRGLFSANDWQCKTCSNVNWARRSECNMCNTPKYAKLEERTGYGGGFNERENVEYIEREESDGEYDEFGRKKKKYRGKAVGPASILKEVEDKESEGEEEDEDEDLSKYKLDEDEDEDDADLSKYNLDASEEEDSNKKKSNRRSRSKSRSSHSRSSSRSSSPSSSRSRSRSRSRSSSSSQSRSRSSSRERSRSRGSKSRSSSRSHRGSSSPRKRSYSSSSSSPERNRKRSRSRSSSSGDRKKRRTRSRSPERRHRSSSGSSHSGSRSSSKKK

This is one part of the list.
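Also: competitive chemoproteomic profiling in live THP-1 cells with an iodoacetamide desthiobiotin (IA-DTB) probe, comparing probe-labelled peptide intensities in compound-treated cells against DMSO-treated controls.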

As to “ZNHIT1_O43257_140_CLGTHQETR (UniProt O43257)”, the “probe-labelled cysteine peptide fold change” value (10 µM) came out at 0.0173 and the “probe-labelled cysteine peptide fold change” value (50 µM) was -0.0417.

Turning to “ZYX_Q15942_553+562_PLSIEADDNGCFPLDGHVLCR (UniProt Q15942)”, the “probe-labelled cysteine peptide fold change” value is, setting by setting: (10 µM) 0.201; (50 µM) 0.0148.

“ZSWIM8_A7E2V4_1094_NVPESSPHSPCEGLPSEAALTPRPEGK (UniProt A7E2V4)”: the “probe-labelled cysteine peptide fold change” value is 0.00545 (10 µM) and -0.182 (50 µM).

For the target “ZZEF1_O43149_728_DTEESVCGATLLLR (UniProt O43149)”, the “probe-labelled cysteine peptide fold change” value worked out at 0.0329 (10 µM) and 0.0452 (50 µM).

Turning to “ZWILCH_Q9H900_354_SDLDFAEQLWCK (UniProt Q9H900)”, the “probe-labelled cysteine peptide fold change” value is, setting by setting: (10 µM) 0.176; (50 µM) -0.00549.

For the target “ZNHIT6_Q9NWK9_171_FVGQCIK (UniProt Q9NWK9)”, the “probe-labelled cysteine peptide fold change” value reads like this: (10 µM) 0.0565; (50 µM) -0.25.

On to “ZNRD1_Q9P1U0_78_TSVVFHQLGTAMPMSVEEGPECQGPVVDRR (UniProt Q9P1U0)”, for which the “probe-labelled cysteine peptide fold change” value reads like this: (10 µM) -0.107; (50 µM) -0.29.

On to “ZNFX1_Q9P2E3_1288_VPEGGCSLPCEFR (UniProt Q9P2E3)”, for which the “probe-labelled cysteine peptide fold change” value (10 µM) came to 0.0473 and the “probe-labelled cysteine peptide fold change” value (50 µM) was -0.139.

For the target “ZNF746_Q6NUN9_385_CKPPVGLNPR (UniProt Q6NUN9)”, the “probe-labelled cysteine peptide fold change” value was -0.0357 (10 µM) and 0.00372 (50 µM).

In the case of “ZYX_Q15942_537+540+553+562_CEDCGKPLSIEADDNGCFPLDGHVLCR (UniProt Q15942)”, the “probe-labelled cysteine peptide fold change” value is, setting by setting: (10 µM) -0.272; (50 µM) -0.47.

On to “ZNF787_Q6DD87_376_AGGEEEDDDDEAAGGRCPECR (UniProt Q6DD87)”, for which the “probe-labelled cysteine peptide fold change” value was -0.195 (10 µM) and -0.0682 (50 µM).

For the target “ZRANB2_O95218_71_GLFSANDWQCK (UniProt O95218)”, the “probe-labelled cysteine peptide fold change” value by setting is: (10 µM) -0.108; (50 µM) -0.119.

Take “ZNF830_Q96NB3_314_QIGEIDEQIECYR (UniProt Q96NB3)”: the “probe-labelled cysteine peptide fold change” value was -0.236 (10 µM) and 0.05 (50 µM).

As for “ZYX_Q15942_537_CEDCGKPLSIEADDNGCFPLDGHVLCR (UniProt Q15942)”, the “probe-labelled cysteine peptide fold change” value by setting is: (10 µM) -0.2; (50 µM) -0.0799.

(Values after the supplement of paper PMC12067093, “Discovery and optimisation of a covalent ligand for TRIM25 and its application to targeted protein ubiquitination” (Chemical Science, 2025).)
